Tested on: Plasmodium falciparum 3D7 (chloroquine-sensitive strain)
Experiment: In vitro anti-plasmodial image-based asexual assay, 3D7 strain
Assay type: cell-based
Details: SI = HEK293 IC50/parasite IC50
Protocol: The semisynthesized/functionalized triazolopyrazine compounds and the scaffold triazolopyrazine precursors, compounds 1–18, were tested for their antimalarial activity against the 3D7 (chloroquine-sensitive strain) and Dd2 (chloroquine, pyrimethamine, and mefloquine resistant strain) P. falciparum. Where an accurate IC50 value could not be determined due to 100% growth inhibition and a plateau not being reached, but where ≥90% growth inhibition was attained at the top screening concentration, an estimated IC50 value was calculated.
Plsamodium falciparum 3D7 and Dd2 parasites were cultured in RPMI1640 (Life Technologies, Camarillo, CA, USA) supplemented with 2.5 mg/mL Albumax II, 5% AB human serum, 25 mM HEPES, and 0.37mM hypoxanthine. Ring stage parasites were treated with compounds following two rounds of sorbitol synchronization, as previously described. Artesunate and pyrimethamine were incorporated as controls. Following incubation of assay plates for 72 h at 37 °C, and 5% CO2 and 5% O2, parasites were stained with 2-(4-amidinophenyl)-1H-indole-6-carboxamidine (DAPI) and imaged using an Opera QEHS confocal imaging system (PerkinElmer, Waltham, MA, USA). Images were analyzed, as previously described, using Acapella spot detection software (PerkinElmer, Waltham, MA, USA). […]

With `C[Si](C)(C)CCOc1cncc2nnc(-c3ccc(OC(F)F)cc3)n12` [Compound 5] the “SI for 3D7” value was >5.

Reference: publication PMC8122397, “Synthesis of New Triazolopyrazine Antimalarial Compounds” (Molecules, 2021)
